Values of other authors in patent US20250281496A1, “METHODS OF TREATING NEUROPATHY USING FORETINIB AND COMPOSITIONS THEREOF” (INDIANA UNIVERSITY RESEARCH AND TECHNOLOGY CORPORATION, priority 2022, published 2025).
Some entries share one result that the patent states for a list of compounds.

System: ALS
Conditions: cited from earlier work

SMILES | extension of life
CC1=NN(c2ccccc2)C(=O)C1 [Edaravone] | 2-3 months
Nc1nc2ccc(OC(F)(F)F)cc2s1 [Riluzole] | 2-3 months
